{"source": "the supplement of paper PMC8728848", "binders": {"B1": {"name": "AT1G80310(18) (Arabidopsis thaliana), Q0WP36 (protein)", "chain": "METTTTPLLPGDRSRCGWLRRRLRLKNPLSSELSGAVGDLGTFIPIVLTLTLVSNLDLSTTLIFTGFYNIATGLLFDIPMPVQPMKSIAAVAVSESPHLTPSQIAAAGASTAATLLLLGATGAMSFLYNIIPLPVVRGVQLSQGLQFAFTAIKYVRFNYDTATLKPSSSPRIWLGLDGLILALAALLFIILSTGSGNDREAEDGDLAETSSNESQSRRRRLRLLSSIPSALIVFALGLVLCFIRDPSIFKDLKFGPSKFHILRISWDDWKIGFLRAAIPQIPLSVLNSVIAVCKLSNDLFDKELSATTVSISVGVMNLIGCWFGAMPVCHGAGGLAGQYRFGARSGLSVIFLGIGKLIVGLVFGNSFVRILSQFPIGILGVLLLFAGIELAMASKDMNSKEDSFIMLVCAAVSMTGSSAALGFGCGVVLYLLLKLRTLDCSSVTLFSRSSDESQVDSEAAPRDV"}}, "test_in_all_cases": "glycan array binding signal (z-score within array); higher = stronger binding", "conditions_in_all_cases": "glycan notation: IUPAC condensed, linker removed", "key": {"[1]": {"target": "Neu5Ac(a2-6)GlcNAc(b1-4)GlcNAc(b1-4)GlcNAc", "procedure,_shortened": "(§1)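 The binding signal is a Z-score computed within each array. Data were drawn from 3228 arrays in the Consortium for Functional Glycomics database, restricted to those with a known protein sequence. Scores were averaged over arrays of the same protein sequence at different concentrations or buffers, and over linkers, and negative values can be taken as non-binding.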"}, "Neu5Ac(a2-8)Neu5Ac": {"target": "Neu5Ac(a2-8)Neu5Ac", "procedure,_shortened": "as §1"}, "[2]": {"target": "Neu5Ac(a2-8)Neu5Ac(a2-3)Gal(b1-3)GalNAc(b1-4)[Neu5Ac(a2-3)]Gal(b1-4)Glc", "procedure,_shortened": "as §1"}, "[3]": {"target": "Neu5Ac(a2-8)Neu5Ac(a2-3)Gal(b1-3)GalNAc(b1-4)[Neu5Ac(a2-8)Neu5Ac(a2-3)]Gal(b1-4)Glc", "procedure,_shortened": "as §1"}, "[4]": {"target": "Neu5Ac(a2-8)Neu5Ac(a2-3)Gal(b1-4)Glc", "procedure,_shortened": "as §1"}, "[5]": {"target": "Neu5Ac(a2-8)Neu5Ac(a2-3)Gal(b1-4)GlcNAc", "procedure,_shortened": "as §1"}, "[6]": {"target": "Neu5Ac(a2-8)Neu5Ac(a2-3)[Gal(b1-3)GalNAc(b1-4)]Gal(b1-4)Glc", "procedure,_shortened": "as §1"}, "[7]": {"target": "Neu5Ac(a2-8)Neu5Ac(a2-3)[GalNAc(b1-4)]Gal(b1-4)Glc", "procedure,_shortened": "as §1"}, "[8]": {"target": "Neu5Ac(a2-8)Neu5Ac(a2-8)Neu5Ac", "procedure,_shortened": "as §1"}, "[9]": {"target": "Neu5Ac(a2-8)Neu5Ac(a2-8)Neu5Ac(a2-3)Gal(b1-4)Glc", "procedure,_shortened": "as §1"}, "[10]": {"target": "Neu5Ac(a2-8)Neu5Ac(a2-8)Neu5Ac(a2-3)[Gal(b1-3)GalNAc(b1-4)]Gal(b1-4)Glc", "procedure,_shortened": "as §1"}, "[11]": {"target": "Neu5Ac(a2-8)Neu5Ac(a2-8)Neu5Ac(a2-3)[GalNAc(b1-4)]Gal(b1-4)Glc", "procedure,_shortened": "as §1"}, "[12]": {"target": "Neu5Ac(a2-8)Neu5Ac(a2-8)Neu5Ac(a2-8)Neu5Ac(a2-3)[GalNAc(b1-4)]Gal(b1-4)Glc", "procedure,_shortened": "as §1"}, "[13]": {"target": "Neu5Ac(a2-8)Neu5Gc(a2-3)Gal(b1-4)GlcNAc", "procedure,_shortened": "as §1"}, "[14]": {"target": "Neu5Ac(b2-6)Gal(b1-4)GlcNAc", "procedure,_shortened": "as §1"}, "Neu5Ac(b2-6)GalNAc": {"target": "Neu5Ac(b2-6)GalNAc", "procedure,_shortened": "as §1"}, "[15]": {"target": "Neu5Ac9Ac(a2-3)Gal(b1-3)GlcNAc", "procedure,_shortened": "as §1"}, "[16]": {"target": "Neu5Ac9Ac(a2-3)Gal(b1-4)GlcNAc", "procedure,_shortened": "as §1"}, "[17]": {"target": "Neu5Ac9Ac(a2-6)Gal(b1-4)GlcNAc", "procedure,_shortened": "as §1"}, "[18]": {"target": "Neu5Gc(a2-3)Gal(b1-3)GlcNAc", "procedure,_shortened": "as §1"}, "[19]": {"target": "Neu5Gc(a2-3)Gal(b1-3)[Fuc(a1-4)]GlcNAc", "procedure,_shortened": "as §1"}, "Neu5Gc(a2-3)Gal(b1-4)Glc": {"target": "Neu5Gc(a2-3)Gal(b1-4)Glc", "procedure,_shortened": "as §1"}, "[20]": {"target": "Neu5Gc(a2-3)Gal(b1-4)GlcNAc", "procedure,_shortened": "as §1"}, "[21]": {"target": "Neu5Gc(a2-3)Gal(b1-4)GlcNAc(b1-3)Gal(b1-4)GlcNAc(b1-2)Man(a1-3)[Neu5Gc(a2-3)Gal(b1-4)GlcNAc(b1-3)Gal(b1-4)GlcNAc(b1-2)Man(a1-6)]Man(b1-4)GlcNAc(b1-4)GlcNAc", "procedure,_shortened": "as §1"}, "[22]": {"target": "Neu5Gc(a2-3)Gal(b1-4)[Fuc(a1-3)]GlcNAc", "procedure,_shortened": "as §1"}, "[23]": {"target": "Neu5Gc(a2-6)Gal(b1-4)GlcNAc", "procedure,_shortened": "as §1"}, "Neu5Gc(a2-6)GalNAc": {"target": "Neu5Gc(a2-6)GalNAc", "procedure,_shortened": "as §1"}, "[24]": {"target": "Neu5Gc(a2-8)Neu5Ac(a2-3)Gal(b1-4)GlcNAc", "procedure,_shortened": "as §1"}, "[25]": {"target": "Neu5Gc(a2-8)Neu5Gc(a2-3)Gal(b1-4)GlcNAc", "procedure,_shortened": "as §1"}, "[26]": {"target": "Neu5Gc(a2-8)Neu5Gc(a2-3)Gal(b1-4)GlcNAc(b1-3)Gal(b1-4)GlcNAc", "procedure,_shortened": "as §1"}, "[27]": {"target": "Neu5Gc(a2-8)Neu5Gc(a2-6)Gal(b1-4)GlcNAc", "procedure,_shortened": "as §1"}, "[28]": {"target": "Neu5Gc(b2-6)Gal(b1-4)GlcNAc", "procedure,_shortened": "as §1"}}, "note": "The other results are listed elsewhere or left out.", "data": [{"binder": "B1", "values": [{"measurement": "glycan array binding signal (z-score)", "setting": "[1]", "value": -0.651}, {"measurement": "glycan array binding signal (z-score)", "setting": "Neu5Ac(a2-8)Neu5Ac", "value": -0.857}, {"measurement": "glycan array binding signal (z-score)", "setting": "[2]", "value": -0.86}, {"measurement": "glycan array binding signal (z-score)", "setting": "[3]", "value": 0.359}, {"measurement": "glycan array binding signal (z-score)", "setting": "[4]", "value": -0.678}, {"measurement": "glycan array binding signal (z-score)", "setting": "[5]", "value": -0.661}, {"measurement": "glycan array binding signal (z-score)", "setting": "[6]", "value": -0.952}, {"measurement": "glycan array binding signal (z-score)", "setting": "[7]", "value": -0.61}, {"measurement": "glycan array binding signal (z-score)", "setting": "[8]", "value": -0.762}, {"measurement": "glycan array binding signal (z-score)", "setting": "[9]", "value": -0.862}, {"measurement": "glycan array binding signal (z-score)", "setting": "[10]", "value": -0.653}, {"measurement": "glycan array binding signal (z-score)", "setting": "[11]", "value": -0.581}, {"measurement": "glycan array binding signal (z-score)", "setting": "[12]", "value": -0.09}, {"measurement": "glycan array binding signal (z-score)", "setting": "[13]", "value": -0.745}, {"measurement": "glycan array binding signal (z-score)", "setting": "[14]", "value": 0.021}, {"measurement": "glycan array binding signal (z-score)", "setting": "Neu5Ac(b2-6)GalNAc", "value": -1.09}, {"measurement": "glycan array binding signal (z-score)", "setting": "[15]", "value": -0.052}, {"measurement": "glycan array binding signal (z-score)", "setting": "[16]", "value": -0.269}, {"measurement": "glycan array binding signal (z-score)", "setting": "[17]", "value": -0.518}, {"measurement": "glycan array binding signal (z-score)", "setting": "[18]", "value": -0.667}, {"measurement": "glycan array binding signal (z-score)", "setting": "[19]", "value": -0.584}, {"measurement": "glycan array binding signal (z-score)", "setting": "Neu5Gc(a2-3)Gal(b1-4)Glc", "value": -0.211}, {"measurement": "glycan array binding signal (z-score)", "setting": "[20]", "value": -0.539}, {"measurement": "glycan array binding signal (z-score)", "setting": "[21]", "value": -0.466}, {"measurement": "glycan array binding signal (z-score)", "setting": "[22]", "value": -0.095}, {"measurement": "glycan array binding signal (z-score)", "setting": "[23]", "value": -0.536}, {"measurement": "glycan array binding signal (z-score)", "setting": "Neu5Gc(a2-6)GalNAc", "value": 0.551}, {"measurement": "glycan array binding signal (z-score)", "setting": "[24]", "value": -0.405}, {"measurement": "glycan array binding signal (z-score)", "setting": "[25]", "value": -0.578}, {"measurement": "glycan array binding signal (z-score)", "setting": "[26]", "value": 0.547}, {"measurement": "glycan array binding signal (z-score)", "setting": "[27]", "value": 0.156}, {"measurement": "glycan array binding signal (z-score)", "setting": "[28]", "value": 1.44}]}]}
